Test system: H292 (human lung cancer-derived cell line) subcutaneous xenograft tumors
Test: Intra-tumoral activation assay in H292 xenograft tumors
Type: in vivo, nu/nu mice
Conditions: tumors collected 7 days after dosing

“APMGLKH [CM 7046, also tested as internally quenched peptide probe]” was tested, and the “intra-tumoral activation (FIG. 2B)” value was “cleaved by proteases present in the tumor resulting in activation of the antibody”.
In the case of “ISSGLLSGRSDNH [CM 2001, reference compound]”, the “intra-tumoral activation (FIG. 2B)” value is reported as “cleaved by proteases present in the tumor resulting in activation of the antibody”.

Source: patent publication US20260042849A1, “PROTEASE-CLEAVABLE MOIETIES AND METHODS OF USE THEREOF” (CytomX Therapeutics, Inc., priority 2022, published 2026)
